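Methionyl-tRNA synthetase (putative), Leishmania donovani (UniProt E9BF75). Primary screen of methionyl-tRNA synthetase; the read-out is not stated. The test concentration is not given. Values are per cent inhibition. Size under these conditions: about 68,000 compounds, about 24 of them at 50% or above in at least one test.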

By UniProt entry, the sequences of proteins in these tests, tags left out.
UniProt E9BF75, entry or part of it: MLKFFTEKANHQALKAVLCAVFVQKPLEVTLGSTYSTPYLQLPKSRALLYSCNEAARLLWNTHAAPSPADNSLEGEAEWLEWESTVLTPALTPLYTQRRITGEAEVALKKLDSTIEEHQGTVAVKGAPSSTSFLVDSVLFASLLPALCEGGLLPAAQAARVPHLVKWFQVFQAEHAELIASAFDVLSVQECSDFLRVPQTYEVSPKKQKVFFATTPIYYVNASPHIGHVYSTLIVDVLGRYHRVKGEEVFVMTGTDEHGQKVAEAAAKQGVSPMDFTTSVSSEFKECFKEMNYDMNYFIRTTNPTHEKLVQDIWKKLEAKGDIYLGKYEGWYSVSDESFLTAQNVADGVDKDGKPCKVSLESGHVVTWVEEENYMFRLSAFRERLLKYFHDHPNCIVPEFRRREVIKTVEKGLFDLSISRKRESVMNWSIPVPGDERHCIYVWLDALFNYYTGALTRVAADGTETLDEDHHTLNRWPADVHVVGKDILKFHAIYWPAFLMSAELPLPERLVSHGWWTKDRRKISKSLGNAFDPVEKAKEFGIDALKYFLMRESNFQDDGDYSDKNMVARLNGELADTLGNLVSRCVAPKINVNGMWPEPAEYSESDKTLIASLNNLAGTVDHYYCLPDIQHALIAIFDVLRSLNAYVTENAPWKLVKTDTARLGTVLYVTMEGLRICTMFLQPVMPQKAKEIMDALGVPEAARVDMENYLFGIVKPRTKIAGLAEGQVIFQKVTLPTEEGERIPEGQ

Results are percentages, as filed. The record does not define 0% and 100%; most values in the screen are far below 50% and negative numbers occur (in some assays of this library far below -100). Compounds were drawn at random from those tested, without regard to their results.

structure | Inhibition
CCOC(=O)c1sc2ccsc2c1CNS(C)(=O)=O | 11.11
CCOc1cccc(C(C)NCc2c(C)nn(C)c2N(C)C)c1 (stereo not drawn) | 9.091
CNc1nc2c(s1)C(c1c(F)cccc1Cl)CC(=O)N2 (stereo not drawn) | 13.38
CNC(=O)c1cccc(NC(=O)NCc2ccc(SC)cc2)c1C | 16.03
O=C(NCc1ccc(Br)c(F)c1)Nc1cn[nH]c1 | 17.34
CCC(NC(=O)CNCC(F)(F)F)c1cc(F)ccc1F (stereo not drawn) | 15.82
CN(C)CC1CN(Cc2cccc(C#N)c2)Cc2nccn2C1 (stereo not drawn) | -7.362
CC(C)OCCS(=O)(=O)c1ccccc1C#N | 9.948
CC(C)NC1CCc2[nH]c(=O)ccc2C1 (stereo not drawn) | 14.84
Cc1nn(C)c2c(N3CCN(C(=O)NC4CCCCC4)CC3)ncnc12 | 7.054
CCCN(Cc1ccccc1)Cn1nc(C)c2c(C)onc2c1=O | 13.07
O=C(NCc1cncc2c1CCN(C1CCOCC1)C2)c1ccco1 | 10.44
Cc1ccc(N2CCO[C@H]3CN(CC4CC4)C[C@H]32)nn1 | 13.8
Cc1cccnc1N1CC2(CCN(Cc3cccnc3)C2)C1 | -1.681
O=C(c1cc2cc(I)ccc2[nH]1)N1CCC(Nc2cccnn2)CC1 | 15.64
Cc1nn(C)cc1C(=O)NCc1csc(C2CC2)n1 | 8.924
CCN(Cc1ccncc1)CC1(C)Cc2c(N)nc(N)nc2O1 (stereo not drawn) | 17.7
Cc1cccnc1C(=O)N1C[C@@H]2CC[C@H](Oc3cccc(F)c3)[C@@H]2C1 | 10.36
CC(C#N)CSc1ccccc1NCC(=O)NC(C1CC1)C1CC1 (stereo not drawn) | 5.978
O=C(Cc1ccc2c(c1)OCCO2)NCCc1nnc2n1CCC2 | 9.15
COc1ccccc1OCCCc1cc(C)nc(N)n1 | 4.267
Cc1ncsc1CN1C[C@@H](OCc2ccccn2)[C@H]2OCCC[C@H]21 | 7.904
Cc1cccc(CN2C[C@@H]3COC[C@]3(COc3cccnc3)C2)n1 | 17.37
Cc1noc(C)c1CN1C[C@H](OCC(=O)N(C)C)[C@H]2OCCC[C@H]21 | 6.569
CC(Cn1ccnc1)NS(=O)(=O)Cc1ccc(F)cc1 (stereo not drawn) | 8.493
CCc1nnc(CN2CCN(C(C)=O)CC2)o1 | 15.22
N#Cc1cccc(CN2CCn3cc(CNC(=O)C4CCC4)nc3C2)c1 | 16.3
Cc1nnsc1C(=O)NCc1nn(C2CCCC2)c2c1CCCC2 | 14.37
COCCN1CCC2(CC1)CN(C(=O)C1CC1)c1ccc(F)cc12 | 12.22
CC(C)(C)NC(=O)CNC(=O)CCc1ccccc1Br | 13.27
O=C(c1ncc(F)cc1F)N1CCC(c2ncc[nH]2)CC1 | 13.84
Fc1ccc(F)c(CN2CCC(c3cc4ncccc4cn3)CC2)c1 | 26.77
CCCc1nnnn1Cc1cn2c(C)cccc2n1 | 12.39
COCC(NC(=O)c1cn2ccsc2n1)c1ccnn1C (stereo not drawn) | 3.096
CSCc1cccc(S(=O)(=O)N2CCCCCC2)c1 | 3.266
CCS(=O)(=O)N1CCOC2(COCCN(c3nccs3)C2)C1 (stereo not drawn) | 9.489
COC(=O)c1ccc(CNCc2ccn(C)n2)cc1 | 8.378
Cc1cnn(CC2CN(Cc3nc(C)no3)CCO2)c1 (stereo not drawn) | 20.55
CN1C(=O)CCc2cc(NC(=O)C3CC3)ccc21 | 0.7194
N#Cc1cccc(N2CCC(CO)(CCOc3ccccc3)CC2)n1 | 8.362
CCn1c(C2CCNCC2)nn(CCCc2ccccc2)c1=O | 6.593
Cc1cnc(NC(=O)NCCOc2ncccc2Cl)s1 | 9.157
O=C(NC1CCCC1)c1ccc(C2CCCNC2)nc1 (stereo not drawn) | 8.387
CCOC(=O)C1CCN(c2cc(C(=O)N3CCOCC3)nc(C)n2)CC1 | 14.36
CC(c1cccnc1)N(C)Cc1ccccn1 (stereo not drawn) | 4.087
Cc1cc(Oc2ccccc2C)nc(C2CCCN2)n1 (stereo not drawn) | 10.64
COc1cc(CNC2CCc3nc(C)nn3C2)cc2c1OCO2 (stereo not drawn) | 17.05
OC1(CNCc2ccc(F)c(C(F)(F)F)c2)CCOC1 (stereo not drawn) | 7.065
COCC(=O)N1C[C@H]2CCC[C@@]2(COC)C1 | 14.29
CCCn1cnnc1CNC1CCCC1 | 2.198
CC1(COc2ccccc2)NCCc2[nH]cnc21 (stereo not drawn) | 10.94
Cc1noc(C)c1CN1CCO[C@H]2CN(Cc3cncn3C)C[C@H]21 | -1.25
COc1ccc(CC(=O)N2CCc3nc(C(=O)N(C)C)sc3CC2)cc1 | 11.23
CC(C)N1CCC(Cc2cc(-c3cc(F)ccc3C(=O)O)ncn2)C1 (stereo not drawn) | 19.77
Cc1ncc2c(n1)C1(CCN(C(=O)C(C)C)CC1)OCC2 | 15.94
Cc1cc(C)n(CC2CCCN2CC(=O)NC2CCOCC2)n1 (stereo not drawn) | 11.74
O=C(C1CCCCC1)N1CCCC([C@@H]2C[C@H](C(F)F)n3ncnc3N2)C1 (stereo partly drawn) | 11.84
COc1cccc(CN(C)CC2=Nc3ccccc3S(=O)(=O)N2)c1 | 25
O=C1C(Nc2nccn3cnnc23)CCN1c1cccc(Cl)c1 (stereo not drawn) | 14.37
Cc1nc(C)n(CC2CCCN(CC(=O)Nc3cc(C)on3)C2)n1 (stereo not drawn) | 11.58
O=C(N1CCOCC1)[C@@]12CCO[C@@H]1CCN(C1CCCCC1)C2 | 8.934
CC(C)(CO)N1CCN(S(=O)(=O)CCCF)CC1 | 16.32
c1cnnc(NCC2CN(CCn3cncn3)CCO2)c1 (stereo not drawn) | 9.581
O=C(COC1CCCC1)N1C[C@@H]2CN(Cc3ccoc3)CCO[C@@H]2C1 | 12.89
COc1cc(C2Nc3cc(Cl)ccc3C3=NCCN32)ccc1O (stereo not drawn) | -9.061
Cc1nn(C)c(C)c1OCC(=O)N1CCCc2c(F)ccc(F)c21 | 15.32
Cc1ccc(N2CC[C@H](OCC3CC3)[C@@H]2Cc2cnn(C)c2)nn1 | 19.05
Cc1ccc(-n2nnc(CC(=O)N3CCN(C4CC4)CC3)c2C)cc1 | 9.537
CCOc1ccccc1CNC(=O)N1CCC(Cc2cnn(C)c2)C1 (stereo not drawn) | 6.316

For reference, 4 entries once more:

Result for O=C1C(Nc2nccn3cnnc23)CCN1c1cccc(Cl)c1 (stereo not drawn) was 14.37%.
Result for CCOc1ccccc1CNC(=O)N1CCC(Cc2cnn(C)c2)C1 (stereo not drawn) was 6.316%.
Result for Cc1ccc(N2CC[C@H](OCC3CC3)[C@@H]2Cc2cnn(C)c2)nn1 was 19.05%.
Result for Cc1nn(C)c(C)c1OCC(=O)N1CCCc2c(F)ccc(F)c21 was 15.32%.

Source: ChEMBL document CHEMBL3988442, “University of Dundee, Small-Polar-MMV Screening Library” (2021).